This test can be described thus: qHTS Assay for Lipid Storage Modulators in Drosophila S3 Cells.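 For cell number change: cells counted by Cell Tracker Red CMTPX staining in the red channel.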 As to conditions: BODIPY lipid droplet fluorescence, 18-24 h; for cell number change: measured here: cell count max response, cells fed with added oleic acid. In outline: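 Drosophila S3 cells got compounds at several concentrations plus oleic acid (400 uM solution). Laser-scanning cytometry with 488 nm excitation read lipid droplets at 500-530 nm and cells at 575-640 nm. Percent activity was relative to 20 uM Triacsin C.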

Where [1] appears, read: measured here: lipid fluorescence (Fed channel) AC50, cells fed with added oleic acid.
Where [2] appears, read: measured here: cell number channel AC50, cells fed with added oleic acid.

This is one part of the list. Shown are side measurements of this screen, not its main read-out; they come without a call. Most of these compounds were active or inconclusive in the main read-out, so they are no random draw. Potencies come from curve fits of mixed quality, noted in brackets.

Turning to `COc1cccc(CNC(=O)CCn2ccc3cc(S(=O)(=O)N4CCCC4)ccc32)c1`, the cell number change is -13%.

As for `Cc1cc(Br)ccc1NC(=O)CN(C)C(=O)CSC(=S)N1CCCC1`, the cell number change was -11.4%. Further, under setting [1], the half-maximal activity concentration (AC50) (as a rule, the concentration at which the activity in the assay is half-maximal) is 4.61 nM [falling, full curve].

Regarding `C(/CCc1ccccc1)=N\Nc1nc2ccccc2[nH]1`, the cell number change is -20.4%. Under setting [2], the AC50 was 411 nM [falling, partial curve, poor fit].

In the case of `O=c1[nH]c2cc3c(cc2cc1CN(CCO)S(=O)(=O)c1ccccc1Cl)OCCO3`, the cell number change was -36.4%. Moreover, the AC50 under setting [2] is 11600 nM [falling, partial curve].

In the case of `O=C(Nc1ccc(F)cc1)C1CCN(C(=O)c2ccc(F)cc2)CC1`, the cell number change is -0.0107%. Besides, the half-maximal activity concentration (AC50) under setting [1] is 5800 nM [rising, single point].

For `O=C(NC(=S)NCCC1=CCCCC1)c1ccco1`, under setting [2], the AC50 was 146 nM [rising, single point].

As to `Cc1c(C(=O)NCc2ccco2)oc2ccc(Br)cc12`, the cell number change was found to be 49.8%. Further, the AC50 under setting [2] was 1160 nM [rising, full curve, poor fit].

On to `CC1CC(=O)Nc2ccccc2N1C(=O)CSc1nnnn1C(C)C` (stereo not given), for which the cell number change was -0.937%.

Turning to `COC(=O)CCC(=O)N1CCCC(N2CCN(c3cccc(C(F)(F)F)c3)CC2)C1` (stereo not given), the cell number change came to 34.1%. For the same compound, under setting [2], the AC50 was 32600 nM [rising, single point]. For the same compound, under setting [1], the AC50 was 29100 nM [rising, single point].

For the compound `CC(C)CC(=O)Nc1nc2c(c(=O)[nH]1)CCCC2`, the cell number change is 9.7%. The AC50 under setting [2] was 651 nM [falling, full curve, poor fit].

Take `COc1ccc(NCc2nnc(SCC(=O)Nc3ccc(OC)cc3)n2C)cc1`: the cell number change is 50.4%. Moreover, the AC50 under setting [2] is 14600 nM [rising, single point].

With `Nc1nc(-c2cccs2)c(NC(=O)c2ccccc2)s1`, the cell number change amounted to 19%. Also, the AC50 under setting [2] is 116 nM [rising, full curve, poor fit].

In the case of `Cc1ccc(NC(=O)C(c2ccccc2)c2ccccc2)nc1`, the cell number change is 8.03%. The AC50 under setting [1] is 6510 nM [rising, single point].

For `Cc1ccc(S(=O)(=O)NC(=NC2CCCCC2)c2ccc(F)cc2)cc1`, the cell number change was -2.38%. Further, the AC50 under setting [2] is 2060 nM [rising, partial curve, poor fit].

Take `Cc1cc2oc(=O)cc(CN(C)Cc3cccc(F)c3)c2cc1Cl`: the cell number change amounted to 30.4%. Moreover, under setting [2], the concentration at half-maximal activity (AC50) was 32600 nM [rising, partial curve, poor fit].

As for `COc1ccc(NC(=S)N=Nc2c(O)[nH]c3ccccc23)cc1`, the cell number change turned out to be 14.8%. Moreover, under setting [1], the concentration at half-maximal activity (AC50) is 1030 nM [rising, full curve, poor fit].

For `Cc1cc(C)nc(N2CCC(C(=O)Nc3ccc(Oc4ccccc4)cc3)CC2)n1`, the cell number change is -41.4%. Moreover, the AC50 under setting [2] is 29100 nM [falling, single point]. In addition, the AC50 under setting [1] is 20600 nM [falling, single point].

`Cn1ccc(C(=O)OCC(=O)Nc2ccccc2)n1`: the cell number change is -5.24%. Moreover, the AC50 under setting [1] was 103 nM [rising, full curve, poor fit].

`CCOc1cc(/C=C/C(=O)c2ccc3c(c2)OCCO3)ccc1OCC(=O)N(C)C`: the cell number change was 1.26%.

As to `COc1ccc(C)cc1NC(=O)CCC(=O)Nc1nnc(C2CCCCC2)s1`, the cell number change was 4.48%. The AC50 under setting [1] was 29100 nM [rising, single point].

For `Cn1c(=S)[nH]c2[nH]c(=O)cnc2c1=O`, the cell number change was 0.314%. Further, under setting [1], the half-maximal activity concentration (AC50) was 1460 nM [falling, partial curve].

On to `COc1ccc(CNC(=O)CN(C)S(=O)(=O)c2ccccc2)cc1`, for which the cell number change was -21.9%. For the same compound, under setting [2], the AC50 was 731 nM [falling, single point]. The AC50 under setting [1] is 461 nM [falling, partial curve, poor fit].

Consider `O=C(COC(=O)/C=C/c1ccccc1)NCC1CCCO1` (stereo not given), for which the cell number change was found to be 35.1%.

As to `Nc1nc(NCCc2ccccc2)nc(NCc2ccccc2)c1[N+](=O)[O-]`, the cell number change came out at 4.17%. For the same compound, the AC50 under setting [2] is 103 nM [rising, partial curve, poor fit]. Besides, the AC50 under setting [1] is 6510 nM [falling, single point].

Consider `Cc1cc(C(=O)N2CCCC(N3CCN(c4cccc(C(F)(F)F)c4)CC3)C2)n[nH]1` (stereo not given), for which the cell number change worked out at 16.7%. Moreover, the AC50 under setting [2] was 1300 nM [rising, full curve, poor fit]. In addition, the AC50 under setting [1] was 1840 nM [rising, partial curve, poor fit].

Consider `O=C(Nc1ccc(NC(=O)c2ccccc2F)cc1)c1ccccc1F`, for which the cell number change is -26.4%. Also, the AC50 under setting [2] was 411 nM [falling, full curve, poor fit].

Take `COc1ccc(Cl)cc1NC(=O)Nc1ccc(C(=O)N2CCOCC2)cc1`: the cell number change was -21%. Also, the AC50 under setting [1] is 2060 nM [rising, partial curve].

Regarding `CN(CC(=O)Nc1ccccc1Br)C(=O)c1n[nH]c2ccccc12`, the cell number change was found to be 71%. The AC50 under setting [2] was 6510 nM [rising, partial curve].

On to `Cc1cc(NC(=O)Cc2ccccc2[N+](=O)[O-])no1`, for which the cell number change was -8.24%. Under setting [1], the AC50 is 29100 nM [rising, single point].

Turning to `CC(C)N(C(=O)COC(=O)[C@H](C)NC(N)=O)c1ccccc1`, the cell number change amounted to 5.11%.

For the compound `Cc1cccc(N=N/C(=C\O)C(=O)c2cccs2)c1`, the cell number change worked out at 15.5%. Moreover, the AC50 under setting [2] was 580 nM [rising, partial curve, poor fit]. Moreover, the AC50 under setting [1] is 4.11 nM [rising, full curve, poor fit].

Turning to `O=C(O)C(Cc1ccccc1)N1C(=O)c2ccccc2C1=O` (stereo not given), the AC50 under setting [2] is 1840 nM [rising, partial curve] and the AC50 under setting [1] was 6510 nM [rising, single point].

Regarding `Cc1ccc(S(=O)(=O)N2CCN(C(=O)COC(=O)c3cc(C)oc3C)CC2)cc1`, the cell number change was 49.1%. Under setting [2], the AC50 was 10300 nM [rising, partial curve, poor fit]. Moreover, the AC50 under setting [1] is 1840 nM [rising, partial curve].

Regarding `Cn1cc2cccc([N+](=O)[O-])c2n1`, the cell number change worked out at 5.85%.

For `COc1ccc(Nc2nnc(SCC(=O)NC3CC3)s2)cc1`, the AC50 under setting [1] is 206 nM [rising, full curve, poor fit].

Take `O=C(CCNC(=O)c1ccc(Cl)cc1)NC1CCCCCC1`: the cell number change was 0.57%. The AC50 under setting [2] was 1640 nM [falling, partial curve]. Besides, under setting [1], the AC50 is 2060 nM [falling, partial curve].

In the case of `Cc1nc2c(C#N)c[nH]n2c(=O)c1CCO`, the cell number change was -17.5%. Also, under setting [1], the AC50 is 92 nM [falling, full curve, poor fit].

As for `COc1ccc(-n2c(=O)[nH]cc(C(=O)Nc3ccccc3)c2=O)cc1`, the cell number change was determined as 3.58%. Under setting [1], the concentration at half-maximal activity (AC50) was 2590 nM [falling, partial curve].

For `O=C(CCNS(=O)(=O)c1ccccc1)NCC1CCCCC1`, the cell number change was -95.5%. In addition, the AC50 under setting [2] is 13000 nM [falling, partial curve]. In addition, under setting [1], the AC50 is 3260 nM [falling, full curve].

Turning to `O=C(c1cccs1)N(Cc1cccc(F)c1)C1CCS(=O)(=O)C1` (stereo not given), the cell number change is -11.9%. In addition, the AC50 under setting [1] is 11600 nM [falling, partial curve].

Consider `COc1ccccc1N1CCN(CC(=O)c2c[nH]c3ccccc23)CC1`, for which the cell number change is -61.1%. In addition, the AC50 under setting [2] is 16400 nM [falling, partial curve]. Also, the AC50 under setting [1] was 9200 nM [falling, partial curve].

As to `Oc1ccc(/C=N/N2CCOCC2)c(O)c1O`, under setting [1], the AC50 is 20600 nM [rising, single point].

Take `C=CCNC(=O)COC(=O)c1oc2ccccc2c1CSC1CCCCC1`: the cell number change was -24.7%. Also, the AC50 under setting [1] was 20600 nM [falling, single point].

In the case of `CN(CC(=O)NCc1ccccc1)Cc1ccc(Cl)cc1`, the cell number change was found to be 13.9%. Besides, the AC50 under setting [1] is 580 nM [rising, single point].

As for `CC(=O)NS(=O)(=O)c1ccc(NC(=S)NC(=O)C(C)C)cc1`, the cell number change was -83.5%. The AC50 under setting [2] was 29100 nM [falling, single point].

Take `Cc1cccc(C(=O)Nc2nnc(S(=O)(=O)N3CCC(C)CC3)s2)c1`: the cell number change is -32.7%. For the same compound, the concentration at half-maximal activity (AC50) under setting [2] is 130 nM [falling, full curve, poor fit].

With `Cc1ccc(S(=O)(=O)CC(=O)Nc2ccc(S(=O)(=O)Nc3onc(C)c3C)cc2)cc1`, the cell number change is -8.67%. Besides, the AC50 under setting [1] is 3660 nM [falling, full curve].

Turning to `Cc1nn(CC2CC2)c(=O)n1-c1ccc(F)cc1`, the cell number change was determined as 16.5%. For the same compound, the AC50 under setting [1] was 14600 nM [rising, single point].

For the compound `O=C(CNC(=O)c1cccs1)NCC(=O)OCc1ccccc1Br`, the cell number change was 32.1%. The AC50 under setting [2] is 14100 nM [rising, single point]. The AC50 under setting [1] was 17800 nM [rising, single point].

As for `Cc1sc2nc(SCC(=O)Nc3cccc(C(=O)O)c3)[nH]c(=O)c2c1C`, the cell number change stood at 9.64%. Besides, the half-maximal activity concentration (AC50) under setting [1] is 16400 nM [falling, single point].

`O=C1c2ccccc2S(=O)(=O)N1CC(O)COc1ccc(Cl)cc1` (stereo not given): the cell number change is -0.559%.

For the compound `CC1CN(C(=O)CSc2nc(-c3ccccc3)cs2)CC(C)O1` (stereo not given), the cell number change is 51.5%. The AC50 under setting [1] is 6510 nM [rising, single point].

As for `Cc1ccc(OCC(=O)Nc2ccc(CN3CCOCC3)cc2)cc1`, the cell number change turned out to be 1.73%. For the same compound, the half-maximal activity concentration (AC50) under setting [1] was 1460 nM [rising, full curve].

With `CC(=O)N1CCc2cc(S(=O)(=O)C(C)CC(=O)NCc3ccc(C)o3)ccc21` (stereo not given), the cell number change came out at 2.75%. In addition, under setting [1], the AC50 is 92 nM [rising, full curve, poor fit].

On to `Cc1ccccc1NC(=S)N(CCc1c(C)[nH]c2ccc(F)cc12)Cc1ccncc1`, for which the cell number change was -18.4%. In addition, the AC50 under setting [1] is 29100 nM [falling, single point].

Consider `COc1cccc(C(C(=O)NC2CCCC2)N(C(=O)c2ccco2)C2CC2)c1OC` (stereo not given), for which the cell number change turned out to be 1.95%.

`COc1ccccc1NS(=O)(=O)c1cccc(NC(=O)Nc2cccc(Cl)c2)c1`: the cell number change is -30.3%. Further, under setting [2], the AC50 was 29100 nM [falling, single point].

Take `Cc1ccc(OCCCC(=O)Nc2nnc(C3CCCO3)s2)c(C)c1` (stereo not given): the cell number change turned out to be 9.55%. The AC50 under setting [1] was 517 nM [falling, full curve].

With `CCCCCNC(=O)Cc1ccc(OC)cc1`, the cell number change was 25.6%.

Consider `COCCNC(=O)CNC(=S)N(CCCN1CCOCC1)Cc1cccs1`, for which the cell number change is -26.6%. For the same compound, the concentration at half-maximal activity (AC50) under setting [1] was 2310 nM [falling, single point].

As to `CC(=O)c1cccc(NC(=O)NC2CC(=O)N(c3ccc4c(c3)OCCO4)C2)c1` (stereo not given), the cell number change is 6.83%.

Source of the values: PubChem BioAssay AID2685 (National Center for Advancing Translational Sciences (NCATS), 2010).
